The other results are listed elsewhere or left out.
Assays:
Assay in all cases: log2 fold change, soluble protein after heating vs DMSO (PISA); higher = thermal stabilisation; K562 cells, 10 uM, 30 min; active = over 0.2 and 3.5 SD of the protein, either way, in both replicates (recomputed)
saracatinib = compound: CN1CCN(CCOc2cc(OC3CCOCC3)c3c(Nc4c(Cl)ccc5c4OCO5)ncnc3c2)CC1 [saracatinib]
How it was run: (§1)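 Values are thermal stability changes relative to control samples and are taken from duplicates. They are stated as log2 fold changes. Before quantification by TMTpro 16plex LC-MS/MS with equalised channel sums, K562 cells at 2×10^6 cells/mL were treated with 10 μM compound for 30 min, heated in aliquots for 3 min across 48°C-58°C, pooled, extracted in PBS with 0.5% NP-40 at 4°C, and centrifuged at 21,000xg for 90 min to give the soluble supernatant.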

Chains of the proteins cited; added tags and fusions are not shown. Lines headed by an entry give the natural chain unless they say otherwise; changes in a name come on top.
UniProt O15269: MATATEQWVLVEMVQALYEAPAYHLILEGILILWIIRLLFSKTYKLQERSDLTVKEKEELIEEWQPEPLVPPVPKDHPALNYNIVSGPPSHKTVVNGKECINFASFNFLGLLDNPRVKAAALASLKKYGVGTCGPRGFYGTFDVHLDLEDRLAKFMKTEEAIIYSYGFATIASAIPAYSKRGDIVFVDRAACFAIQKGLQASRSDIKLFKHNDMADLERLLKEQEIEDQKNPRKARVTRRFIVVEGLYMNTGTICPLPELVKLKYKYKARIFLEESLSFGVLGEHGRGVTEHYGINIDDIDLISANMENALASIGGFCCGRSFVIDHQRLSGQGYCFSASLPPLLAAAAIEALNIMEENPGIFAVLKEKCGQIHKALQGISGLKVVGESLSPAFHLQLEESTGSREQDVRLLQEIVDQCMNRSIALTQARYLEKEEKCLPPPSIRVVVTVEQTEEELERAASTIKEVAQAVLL
UniProt P49458: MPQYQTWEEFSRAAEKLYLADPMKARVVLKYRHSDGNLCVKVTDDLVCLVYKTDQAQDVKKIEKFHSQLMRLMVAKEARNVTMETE
UniProt P10124: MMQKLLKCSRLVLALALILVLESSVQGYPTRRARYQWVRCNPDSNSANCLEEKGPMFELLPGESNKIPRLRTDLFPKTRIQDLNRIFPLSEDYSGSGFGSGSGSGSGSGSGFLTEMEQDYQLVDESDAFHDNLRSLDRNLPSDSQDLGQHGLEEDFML
UniProt Q15831: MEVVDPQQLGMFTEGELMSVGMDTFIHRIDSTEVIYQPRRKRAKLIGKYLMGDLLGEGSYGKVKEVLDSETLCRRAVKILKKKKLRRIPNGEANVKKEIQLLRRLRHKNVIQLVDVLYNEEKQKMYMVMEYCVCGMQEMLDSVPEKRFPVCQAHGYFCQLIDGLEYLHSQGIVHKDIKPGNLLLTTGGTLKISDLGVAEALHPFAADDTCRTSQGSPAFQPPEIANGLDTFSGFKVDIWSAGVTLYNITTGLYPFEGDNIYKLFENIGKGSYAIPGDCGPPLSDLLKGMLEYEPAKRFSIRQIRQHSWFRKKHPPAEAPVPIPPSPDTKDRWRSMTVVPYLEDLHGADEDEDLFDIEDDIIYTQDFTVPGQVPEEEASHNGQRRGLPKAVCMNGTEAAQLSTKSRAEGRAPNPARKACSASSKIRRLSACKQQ
UniProt P19623: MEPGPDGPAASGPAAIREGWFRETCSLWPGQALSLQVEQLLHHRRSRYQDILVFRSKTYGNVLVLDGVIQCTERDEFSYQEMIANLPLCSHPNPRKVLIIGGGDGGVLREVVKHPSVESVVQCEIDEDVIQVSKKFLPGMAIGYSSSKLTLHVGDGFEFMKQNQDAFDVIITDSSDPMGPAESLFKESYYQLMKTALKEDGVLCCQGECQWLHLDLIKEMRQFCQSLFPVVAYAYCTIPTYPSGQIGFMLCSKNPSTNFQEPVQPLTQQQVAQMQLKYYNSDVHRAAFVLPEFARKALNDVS
UniProt Q9NRC1: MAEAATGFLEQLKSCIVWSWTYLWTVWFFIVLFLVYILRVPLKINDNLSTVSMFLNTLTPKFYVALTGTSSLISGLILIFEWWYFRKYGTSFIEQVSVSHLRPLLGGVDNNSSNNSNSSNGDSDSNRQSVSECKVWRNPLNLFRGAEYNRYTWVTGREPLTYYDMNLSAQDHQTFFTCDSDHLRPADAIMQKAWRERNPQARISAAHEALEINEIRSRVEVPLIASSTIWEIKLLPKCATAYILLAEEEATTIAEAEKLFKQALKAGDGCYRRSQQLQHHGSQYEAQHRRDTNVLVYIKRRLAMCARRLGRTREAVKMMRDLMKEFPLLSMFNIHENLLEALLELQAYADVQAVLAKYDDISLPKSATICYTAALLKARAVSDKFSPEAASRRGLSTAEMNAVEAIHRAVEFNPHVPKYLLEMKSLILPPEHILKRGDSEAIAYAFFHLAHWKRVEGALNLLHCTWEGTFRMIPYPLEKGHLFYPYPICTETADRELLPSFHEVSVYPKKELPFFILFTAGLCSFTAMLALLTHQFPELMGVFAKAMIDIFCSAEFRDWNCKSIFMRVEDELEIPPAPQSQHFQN
UniProt Q9C004: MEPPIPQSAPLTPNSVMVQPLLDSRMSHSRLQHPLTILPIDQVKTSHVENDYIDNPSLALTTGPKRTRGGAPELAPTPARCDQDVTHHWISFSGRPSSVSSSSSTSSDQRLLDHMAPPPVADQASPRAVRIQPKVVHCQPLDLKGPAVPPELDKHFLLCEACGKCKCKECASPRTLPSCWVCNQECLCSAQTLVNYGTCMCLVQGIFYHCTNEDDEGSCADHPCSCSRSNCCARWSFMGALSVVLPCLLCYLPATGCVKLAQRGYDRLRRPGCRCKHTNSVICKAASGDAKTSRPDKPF
UniProt Q9NUL3: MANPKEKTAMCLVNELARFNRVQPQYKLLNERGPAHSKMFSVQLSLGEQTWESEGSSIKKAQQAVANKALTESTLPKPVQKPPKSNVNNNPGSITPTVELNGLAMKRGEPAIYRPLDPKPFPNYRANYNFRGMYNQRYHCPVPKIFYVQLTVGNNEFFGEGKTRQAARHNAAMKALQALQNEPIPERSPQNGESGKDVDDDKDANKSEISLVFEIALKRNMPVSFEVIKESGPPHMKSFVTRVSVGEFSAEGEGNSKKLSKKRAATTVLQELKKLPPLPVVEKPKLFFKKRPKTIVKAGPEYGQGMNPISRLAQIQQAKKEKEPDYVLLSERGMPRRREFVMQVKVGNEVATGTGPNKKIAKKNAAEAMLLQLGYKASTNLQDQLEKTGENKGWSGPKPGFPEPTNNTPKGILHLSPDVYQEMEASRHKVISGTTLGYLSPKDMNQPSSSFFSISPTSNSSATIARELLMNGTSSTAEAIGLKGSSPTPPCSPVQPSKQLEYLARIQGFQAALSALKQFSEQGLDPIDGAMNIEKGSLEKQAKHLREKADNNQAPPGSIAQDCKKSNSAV
UniProt Q8WVM7: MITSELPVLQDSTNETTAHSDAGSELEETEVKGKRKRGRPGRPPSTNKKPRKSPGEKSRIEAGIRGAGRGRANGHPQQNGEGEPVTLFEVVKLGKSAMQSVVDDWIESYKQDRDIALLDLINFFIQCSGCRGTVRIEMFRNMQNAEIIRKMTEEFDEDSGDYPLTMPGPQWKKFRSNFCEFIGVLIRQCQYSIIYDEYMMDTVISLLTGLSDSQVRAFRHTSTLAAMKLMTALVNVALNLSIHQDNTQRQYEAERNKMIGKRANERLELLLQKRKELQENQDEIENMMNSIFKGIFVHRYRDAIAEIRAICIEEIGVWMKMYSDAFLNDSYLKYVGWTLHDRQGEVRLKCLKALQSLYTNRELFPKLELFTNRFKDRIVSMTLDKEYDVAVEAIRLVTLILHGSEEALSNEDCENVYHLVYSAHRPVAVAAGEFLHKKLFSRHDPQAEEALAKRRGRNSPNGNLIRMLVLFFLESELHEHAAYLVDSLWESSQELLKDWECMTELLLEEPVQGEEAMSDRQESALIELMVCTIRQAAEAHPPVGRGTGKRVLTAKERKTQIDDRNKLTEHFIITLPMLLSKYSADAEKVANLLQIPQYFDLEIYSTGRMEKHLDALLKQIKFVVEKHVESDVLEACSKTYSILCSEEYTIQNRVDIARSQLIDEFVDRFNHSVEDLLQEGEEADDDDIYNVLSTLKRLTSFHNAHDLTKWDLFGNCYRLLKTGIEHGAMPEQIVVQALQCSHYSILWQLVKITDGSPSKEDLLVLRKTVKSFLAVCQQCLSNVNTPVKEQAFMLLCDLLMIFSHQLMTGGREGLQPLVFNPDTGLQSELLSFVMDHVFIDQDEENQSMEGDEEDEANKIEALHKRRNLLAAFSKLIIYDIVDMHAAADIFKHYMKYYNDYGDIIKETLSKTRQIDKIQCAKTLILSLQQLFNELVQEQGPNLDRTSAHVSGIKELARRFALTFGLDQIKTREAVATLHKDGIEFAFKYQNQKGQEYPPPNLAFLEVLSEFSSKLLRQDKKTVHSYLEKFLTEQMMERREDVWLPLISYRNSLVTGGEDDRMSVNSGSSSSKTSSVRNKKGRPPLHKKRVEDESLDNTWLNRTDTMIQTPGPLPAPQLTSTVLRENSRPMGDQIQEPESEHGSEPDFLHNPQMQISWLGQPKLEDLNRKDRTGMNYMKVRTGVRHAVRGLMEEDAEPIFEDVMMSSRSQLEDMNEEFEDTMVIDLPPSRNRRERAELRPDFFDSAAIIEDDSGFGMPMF
UniProt P61011: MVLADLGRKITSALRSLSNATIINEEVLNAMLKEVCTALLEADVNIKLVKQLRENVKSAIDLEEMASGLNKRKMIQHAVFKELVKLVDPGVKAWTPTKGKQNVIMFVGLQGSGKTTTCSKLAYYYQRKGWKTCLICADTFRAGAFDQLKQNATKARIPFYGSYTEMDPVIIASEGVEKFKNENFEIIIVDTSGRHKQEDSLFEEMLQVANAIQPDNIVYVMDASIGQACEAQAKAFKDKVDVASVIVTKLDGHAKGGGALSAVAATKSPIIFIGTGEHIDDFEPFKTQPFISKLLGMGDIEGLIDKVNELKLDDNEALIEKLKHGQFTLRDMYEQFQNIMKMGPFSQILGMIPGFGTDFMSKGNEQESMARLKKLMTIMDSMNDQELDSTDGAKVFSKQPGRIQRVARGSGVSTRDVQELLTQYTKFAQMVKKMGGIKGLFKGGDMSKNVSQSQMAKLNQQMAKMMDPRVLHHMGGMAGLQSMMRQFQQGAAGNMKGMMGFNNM
UniProt Q05519: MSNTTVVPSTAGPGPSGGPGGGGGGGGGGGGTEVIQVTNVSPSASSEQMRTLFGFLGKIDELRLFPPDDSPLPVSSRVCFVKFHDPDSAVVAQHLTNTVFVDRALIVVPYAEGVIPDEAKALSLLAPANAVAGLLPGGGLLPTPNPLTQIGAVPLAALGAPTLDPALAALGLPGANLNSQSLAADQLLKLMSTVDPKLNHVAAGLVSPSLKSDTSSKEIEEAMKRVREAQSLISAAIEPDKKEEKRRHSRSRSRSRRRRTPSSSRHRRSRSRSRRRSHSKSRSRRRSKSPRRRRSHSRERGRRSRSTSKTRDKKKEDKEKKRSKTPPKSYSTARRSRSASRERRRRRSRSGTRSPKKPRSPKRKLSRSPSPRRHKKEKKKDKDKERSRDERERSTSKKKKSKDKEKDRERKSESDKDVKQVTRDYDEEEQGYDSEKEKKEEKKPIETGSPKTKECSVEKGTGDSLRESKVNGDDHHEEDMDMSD
UniProt P31948, whole entry, looked up: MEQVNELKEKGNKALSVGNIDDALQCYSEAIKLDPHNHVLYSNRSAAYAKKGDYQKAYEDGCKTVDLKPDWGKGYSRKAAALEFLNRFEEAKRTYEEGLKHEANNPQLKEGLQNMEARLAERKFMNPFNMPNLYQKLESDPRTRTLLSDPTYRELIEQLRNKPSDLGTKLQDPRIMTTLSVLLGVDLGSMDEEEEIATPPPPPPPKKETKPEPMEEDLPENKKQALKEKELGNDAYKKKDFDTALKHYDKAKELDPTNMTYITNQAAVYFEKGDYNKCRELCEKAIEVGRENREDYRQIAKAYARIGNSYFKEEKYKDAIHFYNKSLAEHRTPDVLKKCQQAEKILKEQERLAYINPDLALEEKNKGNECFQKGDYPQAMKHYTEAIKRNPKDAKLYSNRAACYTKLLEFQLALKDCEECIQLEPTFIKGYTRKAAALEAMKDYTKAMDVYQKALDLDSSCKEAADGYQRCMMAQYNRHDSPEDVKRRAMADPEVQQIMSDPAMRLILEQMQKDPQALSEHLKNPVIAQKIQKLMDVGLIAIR
UniProt Q9GZT4: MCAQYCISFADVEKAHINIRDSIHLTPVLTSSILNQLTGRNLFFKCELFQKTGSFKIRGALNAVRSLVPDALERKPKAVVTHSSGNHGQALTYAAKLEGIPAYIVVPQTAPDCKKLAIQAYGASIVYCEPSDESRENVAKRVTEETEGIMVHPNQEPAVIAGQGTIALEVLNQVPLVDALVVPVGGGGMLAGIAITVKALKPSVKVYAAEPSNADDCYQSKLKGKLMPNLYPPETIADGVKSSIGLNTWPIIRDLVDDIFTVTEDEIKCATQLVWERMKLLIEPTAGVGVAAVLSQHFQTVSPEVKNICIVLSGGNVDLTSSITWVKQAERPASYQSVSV
UniProt Q9NP77: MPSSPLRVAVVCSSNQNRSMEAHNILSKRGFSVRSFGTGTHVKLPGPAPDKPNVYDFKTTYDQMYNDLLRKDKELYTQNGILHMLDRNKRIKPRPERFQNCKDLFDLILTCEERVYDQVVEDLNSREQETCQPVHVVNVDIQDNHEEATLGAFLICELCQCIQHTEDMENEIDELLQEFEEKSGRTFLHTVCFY
UniProt Q15005: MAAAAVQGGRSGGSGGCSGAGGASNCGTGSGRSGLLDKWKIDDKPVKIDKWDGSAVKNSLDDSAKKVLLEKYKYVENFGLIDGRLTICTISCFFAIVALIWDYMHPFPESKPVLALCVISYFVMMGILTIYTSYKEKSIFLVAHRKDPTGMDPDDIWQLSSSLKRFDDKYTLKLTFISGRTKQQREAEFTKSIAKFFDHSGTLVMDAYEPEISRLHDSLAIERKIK

sotrastaurin = compound: CN1CCN(c2nc(C3=C(c4c[nH]c5ccccc45)C(=O)NC3=O)c3ccccc3n2)CC1 [sotrastaurin]
How it was run: as §1

alvocidib = compound: CN1CC[C@H](c2c(O)cc(O)c3c(=O)cc(-c4ccccc4Cl)oc23)[C@H](O)C1 [alvocidib]
How it was run: as §1

Tubastatin A = compound: CN1CCc2c(c3ccccc3n2Cc2ccc(C(=O)NO)cc2)C1 [Tubastatin A]
How it was run: as §1

[1] = compound: CNC(=O)C1=CC=CC=C1NC2=NC(=NC=C2Cl)NC3=C(C=C(C=C3)N4CCOCC4)OC
How it was run: as §1

defactinib = compound: CNC(=O)c1ccc(Nc2ncc(C(F)(F)F)c(NCc3nccnc3N(C)S(C)(=O)=O)n2)cc1 [defactinib]
How it was run: as §1

rucaparib = compound: CNCc1ccc(-c2[nH]c3cc(F)cc4c3c2CCNC4=O)cc1 [rucaparib]
How it was run: as §1

[2] = compound: CNc1nc(-c2ccc3c(N)n[nH]c3c2)cc(N2C[C@@H](C(=O)NC3CCCCC3)CC[C@H]2C)n1
How it was run: as §1

encorafenib = compound: COC(=O)N[C@@H](C)CNc1nccc(-c2cn(C(C)C)nc2-c2cc(Cl)cc(NS(C)(=O)=O)c2F)n1 [encorafenib]
How it was run: as §1

[3] = compound: COC(=O)[C@H](CCSC)NC(=O)C1=C(C=C(C=C1)NC[C@H](CS)N)C2=CC=CC=C2
How it was run: as §1

Measured: log2 fold change

SPTLC1 (UniProt O15269)
inactive: saracatinib -0.016 | sotrastaurin -0.014 | alvocidib -0.076 | Tubastatin A 0.027 | [1] 0.019 | defactinib -0.079 | rucaparib 0.017 | [2] 0.044 | encorafenib 0.016 | [3] -0.064

SRP9 (UniProt P49458)
inactive: saracatinib -0.048 | sotrastaurin 0 | alvocidib 0.271 | Tubastatin A 0.087 | [1] 0.018 | defactinib 0.28 | rucaparib 0.209 | [2] 0.058 | encorafenib 0.145 | [3] 0.034

SRGN (UniProt P10124)
inactive: saracatinib 0.271 | sotrastaurin 0.248 | alvocidib -0.019 | Tubastatin A 0.037 | [1] 0.139 | defactinib -0.118 | rucaparib 0.058 | [2] 0.044 | encorafenib 0.032 | [3] -0.136

STK11 (UniProt Q15831)
inactive: saracatinib 0.049 | sotrastaurin 0.047 | alvocidib -0.032 | Tubastatin A -0.001 | [1] -0.06 | defactinib -0.091 | rucaparib -0.039 | [2] -0.036 | encorafenib 0.026 | [3] 0.05

SPC24 (UniProt Q8NBT2)
inactive: saracatinib 0.063 | sotrastaurin -0.109 | alvocidib -0.06 | Tubastatin A 0.028 | [1] 0.004 | defactinib -0.096 | rucaparib -0.045 | [2] -0.01 | encorafenib 0.026 | [3] -0.058

SPATA5L1 (UniProt Q9BVQ7)
inactive: saracatinib -0.016 | sotrastaurin 0.017 | alvocidib 0.037 | Tubastatin A -0.036 | [1] -0.019 | defactinib 0.039 | rucaparib 0.014 | [2] -0.036 | encorafenib 0.001 | [3] 0.014

SRM (UniProt P19623)
inactive: saracatinib 0.024 | sotrastaurin 0.027 | alvocidib -0.076 | Tubastatin A -0.019 | [1] 0.036 | defactinib -0.023 | rucaparib 0.022 | [2] 0.04 | encorafenib -0.026 | [3] 0.017

2 neighbouring records from above:
SRGN (UniProt P10124)
inactive: saracatinib 0.271 | sotrastaurin 0.248 | alvocidib -0.019 | Tubastatin A 0.037 | [1] 0.139 | defactinib -0.118 | rucaparib 0.058 | [2] 0.044 | encorafenib 0.032 | [3] -0.136

STK11 (UniProt Q15831)
inactive: saracatinib 0.049 | sotrastaurin 0.047 | alvocidib -0.032 | Tubastatin A -0.001 | [1] -0.06 | defactinib -0.091 | rucaparib -0.039 | [2] -0.036 | encorafenib 0.026 | [3] 0.05

Remaining list, next part

STAMBP (UniProt O95630)
inactive: saracatinib -0.117 | sotrastaurin -0.095 | alvocidib -0.111 | Tubastatin A 0.033 | [1] 0.101 | defactinib -0.093 | rucaparib 0.068 | [2] -0.009 | encorafenib 0.02 | [3] -0.038

ST7 (UniProt Q9NRC1)
inactive: saracatinib 0.015 | sotrastaurin 0.018 | alvocidib 0.048 | Tubastatin A 0 | [1] -0.1 | defactinib 0.014 | rucaparib 0.055 | [2] -0.016 | encorafenib 0.03 | [3] -0.06

SPATA31E1 (UniProt Q6ZUB1)
inactive: saracatinib -0.247 | sotrastaurin 0.103 | alvocidib 0.178 | defactinib 0.13 | rucaparib -0.075 | [2] -0.149 | encorafenib 0.021 | [3] 0.157

SPATA33 isoform 2 (UniProt Q96N06)
inactive: saracatinib 0.11 | sotrastaurin 0.022 | alvocidib 0.018 | Tubastatin A 0.035 | [1] -0.06 | defactinib 0.021 | rucaparib 0.022 | [2] -0.017 | encorafenib 0.013 | [3] -0.173

SPARC (UniProt P09486)
inactive: saracatinib 0.102 | sotrastaurin 0.031 | alvocidib 0.04 | Tubastatin A -0.118 | [1] 0.032 | defactinib -0.018 | rucaparib -0.031 | [2] -0.045 | encorafenib 0.013 | [3] 0.116

SPRY4 (UniProt Q9C004)
inactive: saracatinib 0.087 | sotrastaurin -0.04 | alvocidib 0.006 | Tubastatin A 0.045 | [1] -0.004 | defactinib -0.005 | rucaparib -0.038 | [2] -0.071 | encorafenib 0.023 | [3] 0.019

SPG11 (UniProt Q96JI7)
inactive: saracatinib -0.281 | sotrastaurin 0.055 | Tubastatin A 0.012 | [1] -0.156 | defactinib 0.151 | rucaparib 0.046 | [2] 0.119 | encorafenib -0.094 | [3] 0.069

STAU2 (UniProt Q9NUL3)
inactive: saracatinib -0.275 | sotrastaurin 0.037 | alvocidib 0.168 | Tubastatin A 0.335 | [1] 0.064 | defactinib 0.692 | rucaparib 0.425 | [2] -0.068 | encorafenib 0.155 | [3] -0.071

STAG1 (UniProt Q8WVM7)
inactive: saracatinib -0.016 | sotrastaurin -0.021 | alvocidib -0.035 | Tubastatin A 0.04 | [1] -0.031 | defactinib -0.08 | rucaparib -0.116 | [2] -0.011 | encorafenib 0.042 | [3] -0.055

SRPRA (UniProt P08240)
inactive: saracatinib -0.001 | sotrastaurin -0.006 | Tubastatin A -0.007 | [1] 0.033 | defactinib 0.022 | rucaparib 0.116 | [2] 0.06 | encorafenib 0.019 | [3] -0.044

STAT3 (UniProt P40763)
inactive: saracatinib 0.025 | sotrastaurin -0.144 | Tubastatin A 0.05 | [1] 0.029 | defactinib -0.124 | rucaparib -0.062 | [2] -0.017 | encorafenib 0.077 | [3] -0.012

SRP54 (UniProt P61011)
inactive: saracatinib -0.007 | sotrastaurin -0.032 | alvocidib -0.04 | Tubastatin A 0.036 | [1] 0.004 | defactinib -0.061 | rucaparib 0.01 | [2] -0.008 | encorafenib 0.052 | [3] -0.037

SRSF11 (UniProt Q05519)
inactive: saracatinib 0.062 | sotrastaurin -0.059 | Tubastatin A 0.015 | [1] -0.243 | defactinib -0.174 | rucaparib 0.005 | [2] -0.089 | encorafenib -0.016 | [3] -0.045

SRRM1 (UniProt Q8IYB3)
inactive: saracatinib 0.035 | sotrastaurin 0.033 | alvocidib 0.088 | Tubastatin A -0.058 | [1] -0.095 | defactinib 0.007 | rucaparib 0.186 | [2] -0.019 | encorafenib 0.044 | [3] 0.072

STIM1 (UniProt Q13586)
inactive: saracatinib 0.003 | sotrastaurin 0 | Tubastatin A -0.029 | [1] -0.001 | defactinib -0.048 | rucaparib 0.011 | [2] -0.047 | encorafenib 0.052 | [3] 0.032

STEAP3 isoform 2 (UniProt Q658P3)
inactive: saracatinib -0.02 | sotrastaurin -0.027 | Tubastatin A -0.027 | [1] -0.025 | defactinib -0.067 | rucaparib 0.055 | [2] -0.024 | encorafenib 0.012 | [3] 0.006

STIP1 isoform 2 (UniProt P31948)
inactive: saracatinib 0.03 | sotrastaurin -0.007 | alvocidib -0.019 | Tubastatin A -0.021 | [1] 0.01 | defactinib -0.001 | rucaparib -0.062 | [2] -0.029 | encorafenib 0.025 | [3] 0.03

SPATS2L isoform 3 (UniProt Q9NUQ6)
inactive: saracatinib 0.009 | sotrastaurin 0.028 | alvocidib 0.327 | [2] 0.115

SRR (UniProt Q9GZT4)
inactive: saracatinib -0.016 | sotrastaurin 0.048 | Tubastatin A 0.004 | [1] 0.085 | defactinib -0.073 | rucaparib -0.048 | [2] -0.094 | encorafenib 0.017 | [3] 0.047

STAM2 (UniProt O75886)
inactive: saracatinib -0.093 | sotrastaurin -0.011 | Tubastatin A -0.014 | [1] 0.035 | defactinib -0.095 | rucaparib -0.035 | [2] -0.02 | encorafenib 0.027 | [3] -0.019

SSU72 (UniProt Q9NP77)
inactive: saracatinib -0.02 | sotrastaurin -0.14 | alvocidib -0.186 | Tubastatin A 0.267 | [1] 0.066 | defactinib -0.081 | [2] 0.019 | [3] -0.058

SPCS2 (UniProt Q15005)
inactive: saracatinib -0.029 | sotrastaurin -0.054 | Tubastatin A -0.026 | [1] 0.062 | defactinib -0.026 | rucaparib -0.062 | [2] 0.038 | encorafenib 0.044 | [3] 0.021

SPTBN2 (UniProt O15020)
inactive: saracatinib 0.04 | sotrastaurin -0.14 | alvocidib -0.105 | Tubastatin A 0.059 | [1] 0.045 | defactinib -0.075 | rucaparib 0.064 | [2] -0.086 | encorafenib 0.124 | [3] -0.074

SPECC1L (UniProt Q69YQ0)
inactive: saracatinib 0.041 | sotrastaurin 0.051 | alvocidib 0.021 | Tubastatin A 0 | [1] -0.004 | defactinib -0.017 | rucaparib -0.019 | [2] 0.015 | encorafenib 0.003 | [3] -0.083

— the supplement of paper PMC10849652
